These results are taken from the supplement of paper PMC10735217.

Structures can show the parent of a compound that is named as a salt. The list shows a part of the results. Repeats in this data set agree poorly, so a single value says little.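 In a drug-repurposing library screen, luminescence reads luciferase driven by eight TEAD-binding elements, stably integrated into human kidney-derived cells. Compounds scoring over five robust Z scores above the plate mean are called hits.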

In the assay the test system is HEK293A TEAD-LUC reporter. In words: TEAD-luciferase reporter activity (YAP activation), robust Z score vs plate; higher = stronger YAP/TEAD activation. The conditions noted are these: 24 h.

In the case of `C[C@@H](c1nc(-c2ccc(C#N)cc2)cs1)[C@](O)(Cn1cncn1)c1ccc(F)cc1F` [Ravuconazole], the TEAD-luciferase reporter activity was inactive: 0.343 (compound concentration: 200 nM) and inactive: 0.134 (compound concentration: 10 uM).
Turning to `COc1ccccc1N1CCN(CCCNc2cc(=O)n(C)c(=O)n2C)CC1` [urapidil], the TEAD-luciferase reporter activity (compound concentration: 2 uM) was inactive: -1.05.
As to `COc1ccccc1N1CCN(CCCNc2cc(=O)n(C)c(=O)n2C)CC1`, the TEAD-luciferase reporter activity runs as follows: (compound concentration: 200 nM) inactive: -2.47; (compound concentration: 10 uM) inactive: -2.16.
For `CNC(=O)c1ccc2c(c1)S(=O)(=O)c1ccccc1C2=O`, the TEAD-luciferase reporter activity (compound concentration: 200 nM) is inactive: 1.83, the TEAD-luciferase reporter activity (compound concentration: 2 uM) was inactive: -1.07 and the TEAD-luciferase reporter activity (compound concentration: 10 uM) was inactive: 2.68.
On to `O=C(c1ccccc1)c1cccc(NC(=O)c2ccn3c2CSC3c2cccnc2)c1` (stereo not drawn), for which the TEAD-luciferase reporter activity reads like this: (compound concentration: 200 nM) inactive: -1.75; (compound concentration: 2 uM) inactive: -1.15; (compound concentration: 10 uM) inactive: 0.517.
Turning to `CN1C(=N)N[C@@](C)(c2cc(NC(=O)c3ccc(F)cn3)ccc2F)CS1(=O)=O` [Verubecestat], the TEAD-luciferase reporter activity was inactive: 0.961 (compound concentration: 200 nM), inactive: -1.12 (compound concentration: 2 uM) and inactive: -1.07 (compound concentration: 10 uM).
The corresponding values for `CNC(=O)NCCn1c(-c2ccc(N3CCOCC3)cc2)cs/c1=N/c1cccc(F)c1` are inactive: -1.2, inactive: 0.605 and inactive: -1.37.
For the compound `CCOC(=O)C(C)(C)CCCCOc1ccc(OCCCCCn2ccnc2)cc1`, the TEAD-luciferase reporter activity runs as follows: (compound concentration: 200 nM) inactive: 2.43; (compound concentration: 2 uM) inactive: -0.566; (compound concentration: 10 uM) inactive: -0.137.
The like results for `CCCn1cnc(CC(CCCN)C(=O)O)c1` (stereo not drawn) were, in that order, inactive: -1.5, inactive: 0.115 and inactive: -0.176.
The corresponding values for `CCOC(=O)c1cc(Br)c(N)c(CN(CC)CC)c1` are inactive: 0.301, inactive: -0.259 and inactive: 3.47.
The like results for `COc1ccc2nc(COc3ccc(CC4SC(=O)NC4=O)cc3)n(C)c2c1` (stereo not drawn) were, in that order, inactive: 0.0158, inactive: -1.11 and inactive: 0.655.
Take `OC[C@@H]1O[C@@H](O[C@H]2O[C@H](CO)[C@@H](O)[C@H](O)[C@H]2O)[C@@H](O)[C@H](O)[C@H]1O` [Trehalose]: the TEAD-luciferase reporter activity is, setting by setting: (compound concentration: 200 nM) inactive: -1.02; (compound concentration: 2 uM) inactive: -0.818; (compound concentration: 10 uM) inactive: -0.136.
Consider `Cc1nccn1-c1sc(Nc2cnccn2)nc1-c1cccc(C#N)c1`, for which the TEAD-luciferase reporter activity by setting is: (compound concentration: 200 nM) inactive: 0.0339; (compound concentration: 2 uM) inactive: 0.906; (compound concentration: 10 uM) inactive: -1.37.
Consider `COC(=O)c1c(C)nc(C)c(C(=O)OC)c1-c1ccccc1[N+](=O)[O-]`, for which the TEAD-luciferase reporter activity is, setting by setting: (compound concentration: 200 nM) inactive: -1.64; (compound concentration: 2 uM) inactive: -0.846; (compound concentration: 10 uM) inactive: 1.55.
On to `CC(=O)NC(Cc1ccc(C#N)cc1)C(=O)NC(C(=O)O)C1CCCCC1` (stereo not drawn), for which the TEAD-luciferase reporter activity is, setting by setting: (compound concentration: 200 nM) inactive: -0.618; (compound concentration: 2 uM) inactive: -0.153; (compound concentration: 10 uM) inactive: -1.7.
For `CO[C@H]1C[C@@H]2CC[C@@H](C)[C@@](O)(O2)C(=O)C(=O)N2CCCC[C@H]2C(=O)O[C@H]([C@H](C)C[C@@H]2CC[C@@H](OCCO)[C@H](OC)C2)CC(=O)[C@H](C)/C=C(\C)[C@@H](O)[C@@H](OC)C(=O)[C@H](C)C[C@H](C)/C=C/C=C/C=C/1C` [Everolimus], the TEAD-luciferase reporter activity by setting is: (compound concentration: 200 nM) inactive: -0.336; (compound concentration: 2 uM) inactive: -1.02; (compound concentration: 10 uM) inactive: -0.377.
The like results for `CN1CCN(NS(=O)(=O)c2ccc(F)cc2)CC1` were, in that order, inactive: -0.895, inactive: -0.647 and inactive: 0.703.
As for `CCN(CC)CCNC(=O)c1cc(Cl)c(N)cc1OCCS(C)=O` (stereo not drawn), the TEAD-luciferase reporter activity was inactive: -1.02 (compound concentration: 200 nM), inactive: -0.0582 (compound concentration: 2 uM) and inactive: -0.882 (compound concentration: 10 uM).
`CCOC(=O)/C=C/[C@H](C[C@@H]1CCNC1=O)NC(=O)[C@@H](CC(=O)[C@@H](NC(=O)c1cc(C)on1)C(C)C)Cc1ccc(F)cc1` [AG-7088_:_ rupinavir]: for the setting “compound concentration: 10 uM”, the TEAD-luciferase reporter activity is inactive: 0.733.
With `CCOC(=O)/C=C/[C@H](C[C@@H]1CCNC1=O)NC(=O)[C@@H](CC(=O)[C@@H](NC(=O)c1cc(C)on1)C(C)C)Cc1ccc(F)cc1`, under “compound concentration: 2 uM”, the TEAD-luciferase reporter activity was inactive: 0.559.
Consider `COC(=O)N[C@H](C(=O)N[C@@H](Cc1ccccc1)[C@@H](O)CN(Cc1ccc(-c2ccccn2)cc1)NC(=O)[C@@H](NC(=O)OC)C(C)(C)C)C(C)(C)C` [atazanavir sulfate], for which the TEAD-luciferase reporter activity (compound concentration: 2 uM) is inactive: 2.33.
Turning to `COC(=O)N[C@H](C(=O)N[C@@H](Cc1ccccc1)[C@@H](O)CN(Cc1ccc(-c2ccccn2)cc1)NC(=O)[C@@H](NC(=O)OC)C(C)(C)C)C(C)(C)C` [Atazanavir sulfate], the TEAD-luciferase reporter activity is inactive: -0.481 (compound concentration: 200 nM) and inactive: 1.49 (compound concentration: 10 uM).
Take `C[C@H](NC(=O)CCC(F)(F)F)C(=O)N[C@@H]1C(=O)N(CCO)c2ncccc2-c2ccccc21`: the TEAD-luciferase reporter activity by setting is: (compound concentration: 200 nM) inactive: -0.721; (compound concentration: 2 uM) inactive: -1.77; (compound concentration: 10 uM) inactive: -2.45.
As for `CC[C@H]1C2=NC(=C\c3c(C(C)=O)c(C)c4[n]3[Mg][n]3c5c(c(C)/c3=C/2)C(=O)[C@H](C(=O)OC)C=5C2=N/C(=C\4)[C@@H](C)[C@@H]2CCC(=O)OC/C=C(\C)CCCC(C)CCCC(C)CCCC(C)C)/[C@@H]1C` (stereo partly drawn), the TEAD-luciferase reporter activity by setting is: (compound concentration: 200 nM) inactive: -0.939; (compound concentration: 2 uM) inactive: 1.05; (compound concentration: 10 uM) inactive: 1.11.
`C=Cc1c(C)c2[n]3c1=CC1=NC(=Cc4c(C)c(C(=O)[O-])c([n]4[Cu]3)C(CC(=O)[O-])=C3N=C(C=2)C(C)C3CCC(=O)[O-])C(CC)=C1C` (stereo not drawn): the TEAD-luciferase reporter activity by setting is: (compound concentration: 200 nM) inactive: -1.28; (compound concentration: 2 uM) inactive: 1.57; (compound concentration: 10 uM) inactive: 0.733.
With `COc1cc2c(cc1O)CC[C@@H]1[C@@H]2CC[C@]2(C)[C@@H](O)CC[C@@H]12` [2-Methoxyestradiol], the TEAD-luciferase reporter activity reads like this: (compound concentration: 200 nM) inactive: -0.389; (compound concentration: 2 uM) inactive: -0.921; (compound concentration: 10 uM) inactive: -0.518.
With `CCCCCCCCC#CCC#CCC#CCCCC(=O)N1CCN(CCO)CC1`, the TEAD-luciferase reporter activity by setting is: (compound concentration: 200 nM) inactive: -0.543; (compound concentration: 2 uM) inactive: -1.18; (compound concentration: 10 uM) inactive: 0.504.
With `O=C1CCCN1CC(O)CN1CCN(c2ccccc2)CC1` (stereo not drawn), the TEAD-luciferase reporter activity was inactive: 0.776 (compound concentration: 200 nM), inactive: -1.61 (compound concentration: 2 uM) and inactive: -0.0912 (compound concentration: 10 uM).
